# Some of the results follow.
# What was measured:
# Test in all cases: glycan array binding signal (z-score within array); higher = stronger binding
# Settings in all cases: glycan notation: IUPAC condensed, linker removed
# [1] = target: Gal(b1-4)GlcNAc(b1-3)Gal(b1-4)GlcNAc(b1-6)[Gal(b1-3)]GalNAc
# Outline: (§1)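 The binding signal is a Z-score computed within each array and averaged over linkers. Arrays of the same protein sequence at different concentrations or buffers were also averaged together. Data originate from 3228 arrays in the Consortium for Functional Glycomics database, kept only where the protein sequence was available.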
# [2] = target: Gal(b1-4)GlcNAc(b1-3)Gal(b1-4)[Fuc(a1-3)]GlcNAc(b1-3)Gal(b1-4)[Fuc(a1-3)]GlcNAc
# Outline: as §1
# [3] = target: Gal(b1-4)GlcNAc(b1-3)GalNAc
# Outline: as §1
# [4] = target: Gal(b1-4)GlcNAc(b1-3)[Fuc(a1-3)GlcNAc(b1-6)]Gal(b1-4)Glc
# Outline: as §1
# [5] = target: Gal(b1-4)GlcNAc(b1-3)[Gal(b1-4)GlcNAc(b1-6)]Gal(b1-4)GlcNAc
# Outline: as §1
# [6] = target: Gal(b1-4)GlcNAc(b1-3)[GlcNAc(b1-6)]Gal(b1-4)GlcNAc
# Outline: as §1
# [7] = target: Gal(b1-4)GlcNAc(b1-6)Gal(b1-4)GlcNAc
# Outline: as §1
# [8] = target: Gal(b1-4)GlcNAc(b1-6)GalNAc
# Outline: as §1
# [9] = target: Gal(b1-4)GlcNAc(b1-6)[Gal(b1-3)]GalNAc
# Outline: as §1
# [10] = target: Gal(b1-4)GlcNAc(b1-6)[Gal(b1-4)GlcNAc(b1-3)]GalNAc
# Outline: as §1
# Gal(b1-4)GlcNAc6P = target: Gal(b1-4)GlcNAc6P
# Outline: as §1
# Gal(b1-6)Gal = target: Gal(b1-6)Gal
# Outline: as §1
# Gal3S(b1-3)GalNAc = target: Gal3S(b1-3)GalNAc
# Outline: as §1
# Gal3S(b1-3)GlcNAc = target: Gal3S(b1-3)GlcNAc
# Outline: as §1
# [11] = target: Gal3S(b1-3)[Fuc(a1-4)]GlcNAc
# Outline: as §1
# Gal3S(b1-4)Glc = target: Gal3S(b1-4)Glc
# Outline: as §1
# Gal3S(b1-4)Glc6S = target: Gal3S(b1-4)Glc6S
# Outline: as §1
# Gal3S(b1-4)GlcNAc = target: Gal3S(b1-4)GlcNAc
# Outline: as §1
# [12] = target: Gal3S(b1-4)[Fuc(a1-3)]Glc6S
# Outline: as §1
# [13] = target: Gal3S(b1-4)[Fuc(a1-3)]GlcNAc
# Outline: as §1
# [14] = target: Gal3S(b1-4)[Fuc(a1-3)]GlcNAc6S
# Outline: as §1
# Gal3S4S(b1-4)GlcNAc = target: Gal3S4S(b1-4)GlcNAc
# Outline: as §1
# Gal3S6S(b1-4)GlcNAc = target: Gal3S6S(b1-4)GlcNAc
# Outline: as §1
# Gal3S6S(b1-4)GlcNAc6S = target: Gal3S6S(b1-4)GlcNAc6S
# Outline: as §1
# Gal4S(b1-4)GlcNAc = target: Gal4S(b1-4)GlcNAc
# Outline: as §1
# Gal4S6S(b1-4)GlcNAc = target: Gal4S6S(b1-4)GlcNAc
# Outline: as §1
# Gal6P(b1-4)GlcNAc = target: Gal6P(b1-4)GlcNAc
# Outline: as §1
# Gal6S(b1-3)GlcNAc = target: Gal6S(b1-3)GlcNAc
# Outline: as §1
# Gal6S(b1-3)GlcNAc6S = target: Gal6S(b1-3)GlcNAc6S
# Outline: as §1
# Gal6S(b1-4)Glc = target: Gal6S(b1-4)Glc
# Outline: as §1
# Gal6S(b1-4)Glc6S = target: Gal6S(b1-4)Glc6S
# Outline: as §1
# Gal6S(b1-4)GlcNAc = target: Gal6S(b1-4)GlcNAc
# Outline: as §1
# Gal6S(b1-4)GlcNAc6S = target: Gal6S(b1-4)GlcNAc6S
# Outline: as §1
# GalNAc(a1-3)Gal = target: GalNAc(a1-3)Gal
# Outline: as §1
# GalNAc(a1-3)GalNAc = target: GalNAc(a1-3)GalNAc
# Outline: as §1
# [15] = target: GalNAc(a1-3)GalNAc(b1-3)Gal(a1-4)Gal(b1-4)Glc
# Outline: as §1
# [16] = target: GalNAc(a1-3)GalNAc(b1-3)Gal(a1-4)Gal(b1-4)GlcNAc
# Outline: as §1
# GalNAc(b1-3)Gal = target: GalNAc(b1-3)Gal
# Outline: as §1
# [17] = target: GalNAc(b1-3)Gal(a1-4)Gal(b1-4)GlcNAc
# Outline: as §1
# [18] = target: GalNAc(b1-3)Gal(a1-4)Gal(b1-4)GlcNAc(b1-3)Gal(b1-4)Glc
# Outline: as §1
# [19] = target: GalNAc(b1-3)Gal(a1-6)Gal(b1-4)Glc
# Outline: as §1
# GalNAc(b1-3)GalNAc = target: GalNAc(b1-3)GalNAc
# Outline: as §1
# GalNAc(b1-3)GlcNAc = target: GalNAc(b1-3)GlcNAc
# Outline: as §1
# GalNAc(b1-4)Gal(b1-4)Glc = target: GalNAc(b1-4)Gal(b1-4)Glc
# Outline: as §1
# GalNAc(b1-4)GlcNAc = target: GalNAc(b1-4)GlcNAc
# Outline: as §1
binder,measurement,setting,value
SJCP3842 (Schistosoma japonicum) (protein) MFKMRIINLVNISTVLLLINLLQTKSRLVGKENGFMLTVSIYGAQLSDKMTSVPVSWTIDYEDPEKSAFKKLVTDSCDTFSEYVKSQIPKGSVDGQCTSHIFQRPGSGSGVSISLTLSFIYVDVTQPDTVALKTELEKHFANFVTIHSHKITQAQFRINQKAIVIPTGDKDAIDGSKWKIIAIIALVALAIVVIGGFIYICVK,glycan array binding signal (z-score),[1],-0.509
same,glycan array binding signal (z-score),[2],-0.867
same,glycan array binding signal (z-score),[3],-0.741
same,glycan array binding signal (z-score),[4],0.621
same,glycan array binding signal (z-score),[5],0.205
same,glycan array binding signal (z-score),[6],-0.532
same,glycan array binding signal (z-score),[7],0.826
same,glycan array binding signal (z-score),[8],-0.403
same,glycan array binding signal (z-score),[9],0.5
same,glycan array binding signal (z-score),[10],-0.835
same,glycan array binding signal (z-score),Gal(b1-4)GlcNAc6P,0.199
same,glycan array binding signal (z-score),Gal(b1-6)Gal,1.78
same,glycan array binding signal (z-score),Gal3S(b1-3)GalNAc,0.1
same,glycan array binding signal (z-score),Gal3S(b1-3)GlcNAc,-0.363
same,glycan array binding signal (z-score),[11],0.16
same,glycan array binding signal (z-score),Gal3S(b1-4)Glc,0.559
same,glycan array binding signal (z-score),Gal3S(b1-4)Glc6S,0.326
same,glycan array binding signal (z-score),Gal3S(b1-4)GlcNAc,-0.697
same,glycan array binding signal (z-score),[12],2.61
same,glycan array binding signal (z-score),[13],1.34
same,glycan array binding signal (z-score),[14],0.652
same,glycan array binding signal (z-score),Gal3S4S(b1-4)GlcNAc,-0.987
same,glycan array binding signal (z-score),Gal3S6S(b1-4)GlcNAc,2.36
same,glycan array binding signal (z-score),Gal3S6S(b1-4)GlcNAc6S,-0.441
same,glycan array binding signal (z-score),Gal4S(b1-4)GlcNAc,-1.43
same,glycan array binding signal (z-score),Gal4S6S(b1-4)GlcNAc,-1.04
same,glycan array binding signal (z-score),Gal6P(b1-4)GlcNAc,0.022
same,glycan array binding signal (z-score),Gal6S(b1-3)GlcNAc,-0.626
same,glycan array binding signal (z-score),Gal6S(b1-3)GlcNAc6S,1.25
same,glycan array binding signal (z-score),Gal6S(b1-4)Glc,0.36
same,glycan array binding signal (z-score),Gal6S(b1-4)Glc6S,-1.02
same,glycan array binding signal (z-score),Gal6S(b1-4)GlcNAc,0.571
same,glycan array binding signal (z-score),Gal6S(b1-4)GlcNAc6S,-0.384
same,glycan array binding signal (z-score),GalNAc(a1-3)Gal,0.952
same,glycan array binding signal (z-score),GalNAc(a1-3)GalNAc,0.964
same,glycan array binding signal (z-score),[15],1.06
same,glycan array binding signal (z-score),[16],0.086
same,glycan array binding signal (z-score),GalNAc(b1-3)Gal,0.893
same,glycan array binding signal (z-score),[17],0.069
same,glycan array binding signal (z-score),[18],0.831
same,glycan array binding signal (z-score),[19],-1.53
same,glycan array binding signal (z-score),GalNAc(b1-3)GalNAc,-0.397
same,glycan array binding signal (z-score),GalNAc(b1-3)GlcNAc,-0.342
same,glycan array binding signal (z-score),GalNAc(b1-4)Gal(b1-4)Glc,0.111
same,glycan array binding signal (z-score),GalNAc(b1-4)GlcNAc,0.242

# 2 records drawn at random from the list so far:
binder,measurement,setting,value
SJCP3842 (Schistosoma japonicum) (protein) MFKMRIINLVNISTVLLLINLLQTKSRLVGKENGFMLTVSIYGAQLSDKMTSVPVSWTIDYEDPEKSAFKKLVTDSCDTFSEYVKSQIPKGSVDGQCTSHIFQRPGSGSGVSISLTLSFIYVDVTQPDTVALKTELEKHFANFVTIHSHKITQAQFRINQKAIVIPTGDKDAIDGSKWKIIAIIALVALAIVVIGGFIYICVK,glycan array binding signal (z-score),Gal(b1-4)GlcNAc6P,0.199
same,glycan array binding signal (z-score),GalNAc(a1-3)Gal,0.952

# From the supplement of paper PMC8728848
